Laboratory results: PubChem BioAssay AID493246 (Drosophila RNAi Screening Center, 2011)
Test: 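Genes fly cells need to grow and stay alive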 (primary screen). Cells: Drosophila Kc and S2R+ cells. Reagent: long dsRNA against Drosophila genes. Read-out: 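Cell number per well after knock-down, printed as raw plate values; calls were based on per-plate z-scores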. Direction: Kc cell number and S2R+ cell number: higher = more cells remaining. Rule for the call: 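Active when the per-plate z-score of cell number is 3 or more in the direction of fewer cells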.
In all, the deposit lists about 21,000 reagents; this is an unselected part of those that have a named target and a result. In the full data, 429 (2%) got an active call. 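Values are raw and not normalised between plates; calls rest on per-plate z-scores that were not deposited.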 A number with no mark means an inactive call. The numbers tell different reagents against one gene apart. A plus sign joins genes that one reagent is predicted to hit. No sequences are given here. The record does not give: the amount of reagent, the time to read-out.

| gene | reagent | Kc cell number, rep 1 | Kc cell number, rep 2 | S2R+ cell number, rep 1 | S2R+ cell number, rep 2 |
| --- | --- | --- | --- | --- | --- |
| Vav | 1 | 1.59e6 | 1.59e6 | 1.12e6 | 1.30e6 |
| Cyp9f2 | 1 | 1.52e6 | 1.58e6 | 1.30e6 | 1.34e6 |
| CG11858 | 1 | 1.44e6 | 1.50e6 | 9.91e5 | 1.13e6 |
| CG14641 | 1 | 1.65e6 | 1.70e6 | 1.31e6 | 1.43e6 |
| aPKC | 1 | 1.47e6 | 1.48e6 | 1.00e6 | 1.11e6 |
| aPKC | 2 | 1.33e6 | 1.35e6 | 1.17e6 | 1.28e6 |
| Eglp2 | 1 | 1.33e6 | 1.46e6 | 1.09e6 | 1.04e6 |
| hbt | 1 | 1.57e6 | 1.65e6 | 1.22e6 | 1.39e6 |
| colt | 1 | 1.28e6 | 1.31e6 | 1.01e6 | 1.09e6 |
| Tgt | 1 | 1.35e6 | 1.40e6 | 1.17e6 | 1.21e6 |
| Arp5 | 1 | 1.60e6 | 1.75e6 | 1.31e6 | 1.38e6 |
| CG13713 | 1 | 1.70e6 | 1.72e6 | 1.29e6 | 1.23e6 |
| CG17780 + CG17781 | 1 | 1.51e6 | 1.64e6 | 1.03e6 | 1.09e6 |
| CG5181 | 1 | 1.32e6 | 1.37e6 | 5.64e5 | 6.03e5 |
| CG9467 | 1 | 1.49e6 | 1.56e6 | 1.30e6 | 1.36e6 |
| CG31688 | 1 | 1.46e6 | 1.59e6 | 1.22e6 | 3.33e5 |
| CG42240 | 1 | 6.06e5 | – | 8.63e5 | – |
| chas | 1 | 1.54e6 | 1.51e6 | 1.05e6 | 1.15e6 |
| chas | 2 | 1.51e6 | 1.49e6 | 1.08e6 | 1.10e6 |
| Mtmr6 | 1 | 1.64e6 | 1.74e6 | 1.17e6 | 1.33e6 |
| CG17361 | 1 | 1.66e6 | 1.56e6 | 1.18e6 | 1.31e6 |
| CG13484 | 1 | 1.53e6 | 1.52e6 | 1.02e6 | 1.28e6 |
| CG8892 | 1 | 1.21e6 | 1.24e6 | 6.15e5 | 7.22e5 |
| CG16868 | 1 | 1.24e6 | 1.32e6 | 1.13e6 | 1.16e6 |

As entered above:
Entry of CG42240 in “Kc cell number, rep 1”: 6.06e5
Tgt, Kc cell number, rep 1: 1.35e6
